Paper doi:10.1101/2024.09.27.615420
Results are given in words; binding and its absence hold for the method and conditions named. Binding seen in cells or lysates may run through a third protein. Some entries that bind do so weakly or less than the wild type. Where a sequence is shown, tags or fusion partners need not be part of it.

Chains of the proteins cited; added tags and fusions are not shown. Residues count along the entry.
UniProt Q63524, residues 21-201: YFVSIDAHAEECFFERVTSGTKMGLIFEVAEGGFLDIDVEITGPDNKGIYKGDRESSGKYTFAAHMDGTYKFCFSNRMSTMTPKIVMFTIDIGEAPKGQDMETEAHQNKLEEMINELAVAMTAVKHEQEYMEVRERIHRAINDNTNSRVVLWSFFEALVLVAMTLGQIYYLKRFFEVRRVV

B1: calnexin (protein, UniProt P35565 21-591)
chain: HDGHDDDMIDIEDDLDDVIEEVEDSKSKSDTSTPPSPKVTYKAPVPTGEVYFADSFDRGSLSGWILSKAKKDDTDDEIAKYDGKWEVDEMKETKLPGDKGLVLMSRAKHHAISAKLNKPFLFDTKPLIVQYEVNFQNGIECGGAYVKLLSKTSELNLDQFHDKTPYTIMFGPDKCGEDYKLHFIFRHKNPKTGVYEEKHAKRPDADLKTYFTDKKTHLYTLILNPDNSFEILVDQSVVNSGNLLNDMTPPVNPSREIEDPEDRKPEDWDERPKIADPDAVKPDDWDEDAPSKIPDEEATKPEGWLDDEPEYIPDPDAEKPEDWDEDMDGEWEAPQIANPKCESAPGCGVWQRPMIDNPNYKGKWKPPMIDNPNYQGIWKPRKIPNPDFFEDLEPFRMTPFSAIGLELWSMTSDIFFDNFIISGDRRVVDDWANDGWGLKKAADGAAEPGVVGQMLEAAEERPWLWVVYILTVALPVFLVILFCCSGKKQSNAMEYKKTDAPQPDVKDEEGKEEEKNKGDEEEEEEKLEEKQKSDAEEDGGTGSQDEEDSKPKAEEDEILNRSPRNRKPRRE
B2: TMP21 (protein, UniProt Q63584 32-219)
chain: ISFHLPVNSRKCLREEIHKDLLVTGAYEITDQSGGAGGLRTHLKITDSAGHILYAKEDATKGKFAFTTEDYDMFEVCFESKGTGRIPDQLVILDMKHGVEAKNYEEIAKVEKLKPLEVELRRLEDLSESIVNDFAYMKKREEEMRDTNESTNTRVLYFSIFSMFCLIGLATWQVFYLRRFFKAKKLIE
B3: TMED9 (protein, UniProt Q5I0E7 38-235)
chain: LYFHIGETEKKCFIEEIPDETMVIGNYRTQLYDKQREEYQPATPGLGMFVEVKDPEDKVILARQYGSEGRFTFTSHTPGEHQICLHSNSTKFSLFAGGMLRVHLDIQVGEHANDYAEIAAKDKLSELQLRVRQLVEQVEQIQKEQNYQRWREERFRQTSESTNQRVLWWSILQTLILVAIGVWQMRHLKSFFEAKKLV

Each molecule was assayed against T1, GFP-CD59 (C94S) (UniProt P13987) (assay: co-IP).
T1 sequence (chain, GPI anchor (GPI-anchored protein)): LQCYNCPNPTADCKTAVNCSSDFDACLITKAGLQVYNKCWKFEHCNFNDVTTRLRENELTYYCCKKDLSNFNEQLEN
In the case of TMED2 (from UniProt Q63524 21-201), the binding is reported as “binds”. For B1, the binding was “binds”. In the case of B2, the binding is reported as “binds”. In the case of B3, the binding is reported as “binds”.
